Results published in patent US20030044809A1, “Nucleic acid binding of multi-zinc finger transcription factors” (published 2003).

Assays:
Assay in all cases: EMSA
[1] = target: SIP1 CZF2mut full size CZF2 third His to Ser (mouse) (UniProt Q9R0G7); conditions: protein in a lysate after overexpression, protein details: (Myc)6, label: 32P
[2] = target: SIP1 CZF3mut full size CZF3 third His to Ser (mouse) (UniProt Q9R0G7); conditions: protein in a lysate after overexpression, protein details: (Myc)6, label: 32P
[3] = target: SIP1 NZF3mut full size NZF3 third His to Ser (mouse) (UniProt Q9R0G7); conditions: protein in a lysate after overexpression, protein details: (Myc)6, label: 32P
[4] = target: SIP1 NZF4mut full size NZF4 third His to Ser (mouse) (UniProt Q9R0G7); conditions: protein in a lysate after overexpression, protein details: (Myc)6, label: 32P
[5] = target: T1, SIP1 full size (SIP1FS) (mouse) (UniProt Q9R0G7); conditions: protein in a lysate after overexpression, protein details: N-terminal (Myc)6, pCS3, COS1 extract, label: 32P
T1 sequence (looked up): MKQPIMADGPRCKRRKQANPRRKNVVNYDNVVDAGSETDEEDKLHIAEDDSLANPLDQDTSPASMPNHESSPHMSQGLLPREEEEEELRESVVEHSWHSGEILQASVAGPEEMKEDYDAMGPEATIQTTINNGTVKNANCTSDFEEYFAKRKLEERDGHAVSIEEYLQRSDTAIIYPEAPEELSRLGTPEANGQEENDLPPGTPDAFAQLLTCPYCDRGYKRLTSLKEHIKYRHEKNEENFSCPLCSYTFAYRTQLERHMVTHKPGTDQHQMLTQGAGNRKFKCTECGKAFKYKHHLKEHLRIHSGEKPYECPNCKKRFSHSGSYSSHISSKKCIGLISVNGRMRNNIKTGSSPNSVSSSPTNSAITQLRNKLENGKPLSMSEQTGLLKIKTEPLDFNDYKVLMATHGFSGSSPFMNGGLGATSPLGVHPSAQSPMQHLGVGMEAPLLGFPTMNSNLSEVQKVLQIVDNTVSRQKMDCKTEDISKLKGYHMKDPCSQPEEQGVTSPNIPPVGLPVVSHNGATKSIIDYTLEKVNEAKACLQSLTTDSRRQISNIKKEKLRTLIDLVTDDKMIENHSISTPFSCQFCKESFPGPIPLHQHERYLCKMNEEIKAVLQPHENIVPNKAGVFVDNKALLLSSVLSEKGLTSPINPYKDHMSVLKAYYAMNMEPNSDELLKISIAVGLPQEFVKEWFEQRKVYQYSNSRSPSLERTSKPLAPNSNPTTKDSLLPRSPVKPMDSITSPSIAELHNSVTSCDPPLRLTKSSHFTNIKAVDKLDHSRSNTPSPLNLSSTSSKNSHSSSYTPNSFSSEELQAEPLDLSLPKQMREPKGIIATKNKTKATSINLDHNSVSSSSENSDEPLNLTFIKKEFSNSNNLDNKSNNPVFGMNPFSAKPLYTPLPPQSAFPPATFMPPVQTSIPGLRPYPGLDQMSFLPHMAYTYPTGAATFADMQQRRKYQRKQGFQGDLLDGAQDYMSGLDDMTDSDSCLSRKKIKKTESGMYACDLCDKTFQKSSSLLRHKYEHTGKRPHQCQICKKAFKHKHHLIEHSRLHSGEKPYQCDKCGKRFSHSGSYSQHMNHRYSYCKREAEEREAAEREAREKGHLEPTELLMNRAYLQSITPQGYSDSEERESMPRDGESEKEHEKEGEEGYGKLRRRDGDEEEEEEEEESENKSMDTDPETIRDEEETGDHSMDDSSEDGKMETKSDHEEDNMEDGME

[6] = target: T2, deltaEF1 full length (UniProt Q64318); conditions: protein in a lysate after overexpression, protein details: N-terminal (Myc)6, pCS3, COS1 extract, label: 32P
T2 sequence (looked up): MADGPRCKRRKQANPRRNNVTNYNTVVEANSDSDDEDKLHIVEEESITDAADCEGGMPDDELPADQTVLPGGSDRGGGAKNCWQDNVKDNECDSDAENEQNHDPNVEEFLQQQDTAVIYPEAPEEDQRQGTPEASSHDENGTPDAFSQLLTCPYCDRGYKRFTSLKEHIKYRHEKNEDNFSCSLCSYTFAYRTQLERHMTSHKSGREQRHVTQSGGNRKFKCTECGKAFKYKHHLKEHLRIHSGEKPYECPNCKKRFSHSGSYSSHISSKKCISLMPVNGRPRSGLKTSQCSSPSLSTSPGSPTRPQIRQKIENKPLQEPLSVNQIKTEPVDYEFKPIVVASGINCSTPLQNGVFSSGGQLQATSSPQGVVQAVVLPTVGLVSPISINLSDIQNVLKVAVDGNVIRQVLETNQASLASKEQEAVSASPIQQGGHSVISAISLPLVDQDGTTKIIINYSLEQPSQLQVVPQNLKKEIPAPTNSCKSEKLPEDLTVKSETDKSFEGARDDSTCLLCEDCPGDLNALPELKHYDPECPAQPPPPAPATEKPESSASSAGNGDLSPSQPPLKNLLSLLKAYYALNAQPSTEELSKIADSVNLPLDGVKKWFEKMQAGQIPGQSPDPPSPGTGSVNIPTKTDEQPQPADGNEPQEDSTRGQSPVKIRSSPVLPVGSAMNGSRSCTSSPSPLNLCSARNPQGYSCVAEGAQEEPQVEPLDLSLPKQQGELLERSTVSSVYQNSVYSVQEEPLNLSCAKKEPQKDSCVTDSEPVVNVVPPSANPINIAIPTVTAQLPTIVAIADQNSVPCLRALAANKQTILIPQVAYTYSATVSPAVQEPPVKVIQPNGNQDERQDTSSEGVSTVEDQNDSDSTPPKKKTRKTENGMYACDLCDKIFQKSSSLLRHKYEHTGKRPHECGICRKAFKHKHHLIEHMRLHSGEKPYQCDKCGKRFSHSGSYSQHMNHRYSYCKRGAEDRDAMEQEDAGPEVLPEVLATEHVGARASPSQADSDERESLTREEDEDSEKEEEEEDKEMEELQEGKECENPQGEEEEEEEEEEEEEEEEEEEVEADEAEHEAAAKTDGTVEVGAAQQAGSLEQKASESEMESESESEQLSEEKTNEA

[7] = target: T3, SIP1CZF (mouse) (UniProt Q9R0G7); conditions: protein in a lysate after overexpression, protein details: (Myc)6, pCS3, COS1 extract, label: 32P
T3 sequence (looked up): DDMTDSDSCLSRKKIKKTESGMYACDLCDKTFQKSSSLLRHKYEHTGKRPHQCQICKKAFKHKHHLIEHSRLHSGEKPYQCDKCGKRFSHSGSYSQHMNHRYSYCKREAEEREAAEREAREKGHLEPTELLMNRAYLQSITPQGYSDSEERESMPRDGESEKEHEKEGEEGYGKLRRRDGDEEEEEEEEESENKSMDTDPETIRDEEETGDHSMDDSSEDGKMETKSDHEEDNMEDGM

[8] = target: T4, SIP1NZF (mouse) (UniProt Q9R0G7); conditions: protein in a lysate after overexpression, protein details: (Myc)6, pCS3, COS1 extract, label: 32P
T4 sequence (looked up): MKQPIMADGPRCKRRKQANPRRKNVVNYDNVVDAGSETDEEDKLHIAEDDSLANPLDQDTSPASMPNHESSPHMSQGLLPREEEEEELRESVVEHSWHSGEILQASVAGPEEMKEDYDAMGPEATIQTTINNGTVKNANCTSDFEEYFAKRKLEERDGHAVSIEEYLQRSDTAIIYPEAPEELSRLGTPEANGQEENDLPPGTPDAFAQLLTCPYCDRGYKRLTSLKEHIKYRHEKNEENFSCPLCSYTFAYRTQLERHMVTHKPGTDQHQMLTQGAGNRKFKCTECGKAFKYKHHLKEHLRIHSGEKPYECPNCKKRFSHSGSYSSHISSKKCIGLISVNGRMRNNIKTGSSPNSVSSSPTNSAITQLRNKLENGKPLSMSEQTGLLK

[9] = target: GST-CZF2mut CZF2 third His to Ser (mouse) (UniProt Q9R0G7); conditions: purified recombinant protein; protein details: GST; label: 32P; variant of Xbra-WT
[10] = target: GST-CZF3mut CZF3 third His to Ser (mouse) (UniProt Q9R0G7); conditions: purified recombinant protein; protein details: GST; label: 32P; variant of Xbra-WT
[11] = target: GST-NZF3mut NZF3 third His to Ser (mouse) (UniProt Q9R0G7); conditions: purified recombinant protein; protein details: GST; label: 32P; variant of Xbra-WT
[12] = target: GST-NZF4mut NZF4 third His to Ser (mouse) (UniProt Q9R0G7); conditions: purified recombinant protein; protein details: GST; label: 32P; variant of Xbra-WT
[13] = target: T5, FLAG-SIP1 full size (mouse) (UniProt Q9R0G7); conditions: affinity similar to Myc-tagged SIP1; no dimer; protein in a lysate after overexpression; protein details: N-terminal FLAG, pCDNA3, COS1 extract; label: 32P
T5 sequence (looked up): T1 sequence (looked up)

[14] = also no binding when mixed with Xbra-F, variant of Xbra-WT
[15] = similar to Xbra-WT, variant of Xbra-WT
[16] = also no binding in mutant combinations

“GCAGGGCACACCTGGATTGCATTAGAATGAGACTCACTACCCAGTTCAGGTGTGTTGCGT (double strand) [alpha4I-WT]”: no binding [1]; no binding [2]; no binding [3]. “GCAGGGCACACCTGGATTGCATTAGAATGAGACTCACTACCCAGTTCAGGTGTGTTGCGT (double strand) [alpha4I-WT]”: no binding [4]; binds [5]; binds ([6]; strong, supershifted).

“ATCCAGGCCACCTAAAATATAGAATGA (double strand) [Xbra-F]”: no binding ([5]; variant of Xbra-WT); no binding ([7]; variant of Xbra-WT); no binding ([8]; variant of Xbra-WT). “ATCCAGGCCACCTAAAATATAGAATGA (double strand) [Xbra-F]”: no binding ([6]; variant of Xbra-WT).

“TAAAGTGACCAGGTGTCAGTTCT (double strand) [Xbra-E]”: no binding [9]; no binding [10]; no binding [11]. “TAAAGTGACCAGGTGTCAGTTCT (double strand) [Xbra-E]”: no binding [12]; no binding [5, 14]; binds [7, 15]. “TAAAGTGACCAGGTGTCAGTTCT (double strand) [Xbra-E]”: binds [8, 15]; no binding [6, 14].

“ATCCAGGCCACCTAAAATATAGAATGATAAAGTGACCAGGTGTCAGTTCT (double strand) [Xbra-WT]”: binds [13]; no binding [1, 16]; no binding [2, 16]. “ATCCAGGCCACCTAAAATATAGAATGATAAAGTGACCAGGTGTCAGTTCT (double strand) [Xbra-WT]”: no binding [3, 16]; no binding [4, 16]; binds ([5]; strong, supershifted, both CACCT contacted by methylation interference, at least 50-fold higher affinity than SIP1CZF estimated). “ATCCAGGCCACCTAAAATATAGAATGATAAAGTGACCAGGTGTCAGTTCT (double strand) [Xbra-WT]”: binds ([7]; supershifted); binds [8]; binds ([6]; strong).

“ATCCAGGCCACCTAAAATATAGAATGATAAAGTGACCAGATGTCAGTTCT (double strand) [Xbra-D]”: no binding ([5]; variant of Xbra-WT); binds more weakly ([7]; strongly affected, variant of Xbra-WT); no binding ([8]; variant of Xbra-WT). “ATCCAGGCCACCTAAAATATAGAATGATAAAGTGACCAGATGTCAGTTCT (double strand) [Xbra-D]”: no binding ([6]; variant of Xbra-WT).

For some of these results: At least one result comes from cells or an extract, where the contact may be indirect. For some of these results: No signal at the amounts used counts as a negative. For some of these results: Protein sequences can lack the tags named with them. For some of these results: The comparison behind a weaker result is the experiment's own reference, which may not be listed here. For some of these results: Construct, isoform or probe ends are uncertain for at least one entry.
